Here are results for three molecules from paper PMC4729931.

For experiment [1], the target named is T1, VANGL2 (human (endogenous in SUM149, SKBR7, PDX)) (UniProt Q9ULK5).
T1 sequence: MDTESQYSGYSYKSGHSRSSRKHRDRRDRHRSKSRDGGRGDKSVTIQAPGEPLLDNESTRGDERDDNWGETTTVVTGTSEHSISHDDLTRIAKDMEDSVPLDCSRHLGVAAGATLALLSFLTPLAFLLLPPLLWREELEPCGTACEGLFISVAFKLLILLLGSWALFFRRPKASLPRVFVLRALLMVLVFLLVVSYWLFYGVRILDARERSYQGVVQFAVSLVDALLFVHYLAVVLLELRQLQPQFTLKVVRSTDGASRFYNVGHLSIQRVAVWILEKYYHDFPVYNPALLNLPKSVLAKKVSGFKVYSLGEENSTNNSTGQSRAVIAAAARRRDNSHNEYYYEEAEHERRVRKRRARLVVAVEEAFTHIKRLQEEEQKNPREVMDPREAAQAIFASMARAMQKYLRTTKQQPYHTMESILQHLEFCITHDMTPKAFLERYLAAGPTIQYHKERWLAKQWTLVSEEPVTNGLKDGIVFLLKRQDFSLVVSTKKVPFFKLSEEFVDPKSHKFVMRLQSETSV
Kind of experiment: co-IP; co-immunoprecipitation from SUM149 cells expressing GFP-p62^DN (Supplementary Fig. 5).

Experiment [2] concerns the target T1, VANGL2 (human (endogenous in SUM149, SKBR7, PDX)). Kind of experiment: co-IP; SUM149 cell protein extracts incubated with synthetic p62^DN peptide (5 to 100 μM), then immunoprecipitation of VANGL2 and western blot; the peptide against VANGL2 of the extract, read as loss of p62/SQSTM1; only the binder purified.
In experiment [3] the target is Glutathione S-transferase (GST)–p62/SQSTM1 (UniProt Q13501). Kind of experiment: pull-down; GST or GST–p62/SQSTM1 as bait; in vitro translated GFP–VANGL2 constructs, autoradiography; only the target purified.

Results are given in words; binding and its absence hold for the method and conditions named. In cells and extracts the contact can be indirect. Some entries that bind do so weakly or less than the wild type. For part of these data: Sequences can lack the tags named with a protein.

For the molecule VDPSTGELQSLQMPESEGPSSLDPSQEGPTGLKEAALYPHLPP (domain or fragment) [GFP-p62^DN], in experiment [1], the binding result is given as “binds”.
On to VDPSTGELQSLQMPESEGPSSLDPSQEGPTGLKEAALYPHLPP [p62/SQSTM1 peptide p62^346-388], for which the binding entry in experiment [2] is “binds”.

B1: GFP–VANGL2 C-terminal 242–521 (CT), in vitro translated (domain or fragment, UniProt Q9ULK5 242-521)
chain: LQPQFTLKVVRSTDGASRFYNVGHLSIQRVAVWILEKYYHDFPVYNPALLNLPKSVLAKKVSGFKVYSLGEENSTNNSTGQSRAVIAAAARRRDNSHNEYYYEEAEHERRVRKRRARLVVAVEEAFTHIKRLQEEEQKNPREVMDPREAAQAIFASMARAMQKYLRTTKQQPYHTMESILQHLEFCITHDMTPKAFLERYLAAGPTIQYHKERWLAKQWTLVSEEPVTNGLKDGIVFLLKRQDFSLVVSTKKVPFFKLSEEFVDPKSHKFVMRLQSETSV
As to B1, the binding entry in experiment [3] is “binds”.
